# Laboratory results published in publication PMC7819943, “Rice protein-binding microarrays: a tool to detect cis-acting elements near promoter regions in rice”.
# Sequences of proteins named here, by UniProt entry; tags and fusion partners are left off.
# UniProt Q0JBA9, entry or part of it: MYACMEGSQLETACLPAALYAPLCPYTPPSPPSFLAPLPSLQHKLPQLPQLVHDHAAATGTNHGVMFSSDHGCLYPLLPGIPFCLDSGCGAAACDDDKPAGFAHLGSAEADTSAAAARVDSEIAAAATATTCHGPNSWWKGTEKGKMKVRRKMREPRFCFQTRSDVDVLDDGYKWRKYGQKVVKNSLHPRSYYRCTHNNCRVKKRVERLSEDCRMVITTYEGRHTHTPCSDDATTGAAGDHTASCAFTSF
# Some of the results follow.
# Target: OsWRKY34 (Oryza sativa, UniProt Q0JBA9 1-250)
# Experiment: protein-binding microarray (RPBM); PBS, 2% BSA, 51.3 ng/ul salmon testes DNA, 50 uM zinc acetate, 200 nM TF, 25 C, 1 h; high values mean tight binding
# Details: protein: recombinant; tags: N-terminal polyhistidine and DsRed monomer fusion (pET32a); label: CyDye5-dUTP incorporated in the synthesized complementary strand; 3' TTTTT single-stranded linker to array surface; dsDNA, one strand shown
# In short: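 Transcription factors were each fused at the N-terminus to a polyhistidine tag plus DsRed and expressed in E. coli BL21-CodonPlus before Ni–NTA purification. Binding to a double-stranded custom Agilent array was carried out with 200 nM protein at 25 °C for 1 h in PBS, 2% BSA, salmon testes DNA and 50 µM zinc acetate. The binding signal is per-feature fluorescence intensity, in arbitrary units, on an Axon 4000B scanner.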
row,Sequence,binding signal
1,TGGGAATTTAACTTTGCCTCTCTTTTTTTTTTCAATAGTCCGGAGTCACCTAGTGCAG,8170 fluorescence intensity (a.u.)
2,CTAGATTTACTATTTTTGGTGTATTTGTTTTTTTCATTTACGGAGTCACCTAGTGCAG,8340 fluorescence intensity (a.u.)
3,CCTAGCCCTAATTGATCCTTGCCTCGATGTTTTCCCTCCGCGGAGTCACCTAGTGCAG,10100 fluorescence intensity (a.u.)
4,AGGTAGTTTTTAATTCGTCTCAAACATCCTGACCTTTTTCCGGAGTCACCTAGTGCAG,9440 fluorescence intensity (a.u.)
5,GATGGATTTGTGATTTCGTGATTTAGTGGATTTGTGATTCCGGAGTCACCTAGTGCAG,9230 fluorescence intensity (a.u.)
6,GGGGCTTGATTTATTGGGGTTTTGATAGTTGAGAACTTGACGGAGTCACCTAGTGCAG,12800 fluorescence intensity (a.u.)
7,TGTCGTCGTCGCCGCCGCCGCCGCCTCCCGGGCCTCTCCGCGGAGTCACCTAGTGCAG,8120 fluorescence intensity (a.u.)
8,ATGTACAAACTTCCATGGCCTCGCGGTCGCCGACCAACAACGGAGTCACCTAGTGCAG,10000 fluorescence intensity (a.u.)
9,TCCAAAGTACTCTAAGCACAACTTTTCGCTTTTTATATTTCGGAGTCACCTAGTGCAG,10700 fluorescence intensity (a.u.)
10,GCAATTATTAATGTACCGCTCCGTTTTCATTTTTGGGTTGCGGAGTCACCTAGTGCAG,8630 fluorescence intensity (a.u.)
11,TGTGCCGCCGCCGCCGCCTCACATCCACTCCACTCTCTCTCGGAGTCACCTAGTGCAG,8640 fluorescence intensity (a.u.)
12,CCCTAGCCCTCGCGCCGCTCTTCTCCTACCCGGCCCACGCCGGAGTCACCTAGTGCAG,12600 fluorescence intensity (a.u.)
13,TTGACATTTATAAAAGAGAATTTGTTGGTGTTATGTTGACCGGAGTCACCTAGTGCAG,8080 fluorescence intensity (a.u.)
14,ATGGGCCGGGGTTAATGTTTTGTGTCATTGTGTGTGAGACCGGAGTCACCTAGTGCAG,10000 fluorescence intensity (a.u.)
15,TAACCGCCGTTTATCTGAACTTTTTTTTCACTATGAAACACGGAGTCACCTAGTGCAG,9220 fluorescence intensity (a.u.)
16,ACAATTTTTTTCCTTTTACCTCTATGCTTGGAACTCATAACGGAGTCACCTAGTGCAG,8490 fluorescence intensity (a.u.)
17,TCAGCCACACCTCCGCCACTGCCGCGACACCTGAAACAACCGGAGTCACCTAGTGCAG,8340 fluorescence intensity (a.u.)
18,TGTCCGCTTATTTGTTTTAGTCATCGTTCTGGTTAAGATTCGGAGTCACCTAGTGCAG,11400 fluorescence intensity (a.u.)
19,ACCCAATCAGCGTCCACTCCATTGTCCATTCCACTATTCCCGGAGTCACCTAGTGCAG,13500 fluorescence intensity (a.u.)
20,TCATCCTCTTCGCTTGGCCTTCTCCGCATCCGGTTATTTTCGGAGTCACCTAGTGCAG,8180 fluorescence intensity (a.u.)
21,TTCATCCACACTGCAACGCAAGCACAGCCGTCGCGAAAACCGGAGTCACCTAGTGCAG,8140 fluorescence intensity (a.u.)

row,Sequence,binding signal
1,TTTTTCCGTGTGTGTCGTTTCGTTCTTGTTTGTTCGGGTCCGGAGTCACCTAGTGCAG,12400 fluorescence intensity (a.u.)
2,GATTAGTTCCTAACCACATTTTCCAAACACAGCCTAATTACGGAGTCACCTAGTGCAG,8490 fluorescence intensity (a.u.)
3,ACGTGGCTCCTTTGACTAGATTTTTGTCTCACGTATCATTCGGAGTCACCTAGTGCAG,8540 fluorescence intensity (a.u.)
4,CCGCACTGTCCCTTTCGCCCGCGCGTCATACGGTGTCCACCGGAGTCACCTAGTGCAG,10100 fluorescence intensity (a.u.)
5,GGGATTAGGGATTGTTTGTTACTTTGTACGTCTCCTAATACGGAGTCACCTAGTGCAG,12100 fluorescence intensity (a.u.)
6,GAAGCCGACCGTTTTATTTTGTTCTGACGTTAATTTCGTGCGGAGTCACCTAGTGCAG,11800 fluorescence intensity (a.u.)
7,ACTCGACTAATGTTTCTATTTATTCTTGTCTATCATACTCCGGAGTCACCTAGTGCAG,10900 fluorescence intensity (a.u.)
8,ACTCTCTCTGTCTCGAGCTCGAGCTTGTTGTTGTTGATATCGGAGTCACCTAGTGCAG,13100 fluorescence intensity (a.u.)
9,TCCAATATTCTTCATCTACGCAAATTTCCACGGTATTCAACGGAGTCACCTAGTGCAG,10100 fluorescence intensity (a.u.)
10,GATCCAGTGGTCGTAGAGGCGGTCGGGGTGGTCGTGCACGCGGAGTCACCTAGTGCAG,10100 fluorescence intensity (a.u.)
11,TGTCTCTGCCTTTTGTTTTCTTTGCCATCTCTTTCTTTCTCGGAGTCACCTAGTGCAG,13300 fluorescence intensity (a.u.)
12,GACCCCGCGTGTCAGTCTATCCAGGTCAGCCTACTCTCTCCGGAGTCACCTAGTGCAG,9570 fluorescence intensity (a.u.)
13,TCAATCTTGGGTTTCTACTGGTCTAGGCCTGTCTTGCTTACGGAGTCACCTAGTGCAG,8760 fluorescence intensity (a.u.)
14,CCCAACCGGCAAGTATGCACACCACAATAGCGCCCAAATTCGGAGTCACCTAGTGCAG,8290 fluorescence intensity (a.u.)
15,TCGATCCATCTATCTACCTGTCGATCGGTGCTAGTATTAACGGAGTCACCTAGTGCAG,8410 fluorescence intensity (a.u.)
16,ACAGCTCACTTCAGTCTCACTTTTCCTGAATATATATAGCCGGAGTCACCTAGTGCAG,10300 fluorescence intensity (a.u.)
17,AAGATATTCTCCTCAGGAGTTAGGAGTGGTTTTAATTTTACGGAGTCACCTAGTGCAG,8760 fluorescence intensity (a.u.)
18,CCCAACCCCTGGAGCCGTACCAAATTCTGTTGGTATTCCACGGAGTCACCTAGTGCAG,8220 fluorescence intensity (a.u.)
19,GCAGCCCATGCTCTGGTTTCTATTTTTTGTGGTTTTTTTTCGGAGTCACCTAGTGCAG,8390 fluorescence intensity (a.u.)
20,TTATTAGAGTCTGTATTATTAATGTTATTACTATGCCTGGCGGAGTCACCTAGTGCAG,8140 fluorescence intensity (a.u.)
21,ACTTGTTATCGGTCTTGTTAAATTGAGCTGTTTGTTGACACGGAGTCACCTAGTGCAG,12900 fluorescence intensity (a.u.)

row,Sequence,binding signal
1,CACGTTGACCATAATGATTTAGTACCATATACGATAATACCGGAGTCACCTAGTGCAG,14200 fluorescence intensity (a.u.)
2,TGAGAGGTTTGAGCAAGAATAAGTTGGGGTTTCTTCTTTGCGGAGTCACCTAGTGCAG,8220 fluorescence intensity (a.u.)
3,CTCTAATTTTCTTTGCGTGTTCCATCATCAATATGGTATTCGGAGTCACCTAGTGCAG,10700 fluorescence intensity (a.u.)
4,TTGTTTTTATCTATAGAAGTCATCGCACTGAAAATTTGGTCGGAGTCACCTAGTGCAG,8370 fluorescence intensity (a.u.)
5,GAATTAAACTTTGCATGGTTTCTGTTTGGTCAAACTTCTCCGGAGTCACCTAGTGCAG,9130 fluorescence intensity (a.u.)
6,GGTATGGAGGCAGCTCGGGGTGGGCAGGATGGTGGCGGGACGGAGTCACCTAGTGCAG,14900 fluorescence intensity (a.u.)
7,CACCCCTGCTGATGCGTCGCCGCCACCTTCTCTCCTTCCCCGGAGTCACCTAGTGCAG,9150 fluorescence intensity (a.u.)
8,ATATACTACACTATTAATACCTGGTCCCACTTGTCATACACGGAGTCACCTAGTGCAG,9040 fluorescence intensity (a.u.)
9,TATTTTTTGTTGGGTTTTTTGCTCGGCGGCGCCGCGGCGGCGGAGTCACCTAGTGCAG,8140 fluorescence intensity (a.u.)
10,ATGAGTTTGTATGTGATTATATTTATCTCTCCATGGTTACCGGAGTCACCTAGTGCAG,8500 fluorescence intensity (a.u.)
11,GTATTTTTTCCCCTGGGTGATTTGCAACCGATTTCGTTCTCGGAGTCACCTAGTGCAG,10100 fluorescence intensity (a.u.)
12,TTTCCAGAATTTATCTTCTCTGTTTAGGTCTCCTAAAAATCGGAGTCACCTAGTGCAG,8440 fluorescence intensity (a.u.)
13,CCACCCACCGGGGCGCGCCGCGGCGACTGCTACTGTTGAGCGGAGTCACCTAGTGCAG,8360 fluorescence intensity (a.u.)
14,CACCTGCCTCCTCCTACCACCAGCCGCCGCCGACGACTAACGGAGTCACCTAGTGCAG,8550 fluorescence intensity (a.u.)
15,AGTGTGTTTGTGCGTGTTTATAGGGTGAGCGTCTATATTTCGGAGTCACCTAGTGCAG,10300 fluorescence intensity (a.u.)
16,TTTGACAACTAACTAACTAACCATCTCTTCTGTTTTCTCACGGAGTCACCTAGTGCAG,8230 fluorescence intensity (a.u.)
17,AGTGTTCCTAGCTACAACGAGTGGTTTACTTTCTCATCCTCGGAGTCACCTAGTGCAG,10300 fluorescence intensity (a.u.)
18,TGTATTTTTATTGGTTAACAATCGGTTTTCTGGGACTTAACGGAGTCACCTAGTGCAG,10100 fluorescence intensity (a.u.)
19,TCCCATCTTTCCATCCCAATCTCAATCTCCTACCCTTTTACGGAGTCACCTAGTGCAG,8230 fluorescence intensity (a.u.)
20,GCGGTTGGAGGAAGACGACGTCACCCACCTTTTCCCCTTTCGGAGTCACCTAGTGCAG,8030 fluorescence intensity (a.u.)
21,ACGGAAACACCCTATTAATAAAATCTGTTTTATTTTTTATCGGAGTCACCTAGTGCAG,8280 fluorescence intensity (a.u.)

row,Sequence,binding signal
1,ATCCTCGCTGCCCTTCTCCACTGTTTCTCCATCGCCGGCTCGGAGTCACCTAGTGCAG,10300 fluorescence intensity (a.u.)
2,TACTTTCTTGCAACCATCCATCCTCGCCGTCTCCAATTCCCGGAGTCACCTAGTGCAG,8510 fluorescence intensity (a.u.)
3,CCACCACTCATCACATCTCACACTCATTGCCTCTTTCTTCCGGAGTCACCTAGTGCAG,11100 fluorescence intensity (a.u.)
4,CCTTCGTGTTACGTACCACCCTAAAACCCACAAAATCTCCCGGAGTCACCTAGTGCAG,8510 fluorescence intensity (a.u.)
5,ACATGCTCTCTAAGTTTCTCAACGGTGCGTTTCACATTTCCGGAGTCACCTAGTGCAG,9010 fluorescence intensity (a.u.)
6,AATCTGTTTTTGTCTGGTGTGAATATCAATGGCATGCTCTCGGAGTCACCTAGTGCAG,8590 fluorescence intensity (a.u.)
7,ATCCCATCCACTCCTCGATCTCCTCGTACGCCTATAAAATCGGAGTCACCTAGTGCAG,9660 fluorescence intensity (a.u.)
8,AATCATTCCTTTTTTTACTCTTCATACCATCCATATTTATCGGAGTCACCTAGTGCAG,10100 fluorescence intensity (a.u.)
9,GATATTTTGCTTGTATTGTTCGACCACTCGTCTTATTAAACGGAGTCACCTAGTGCAG,8040 fluorescence intensity (a.u.)
10,ATCGAAATGGGGTTTTCTTTTTTTCTTTTTTTTTTCCTTTCGGAGTCACCTAGTGCAG,10600 fluorescence intensity (a.u.)
11,TGTTTCTCTGTATGCTTCTAAACTGCGGCAGATTTTTTTTCGGAGTCACCTAGTGCAG,8140 fluorescence intensity (a.u.)
12,ACGCTTGGTGGGGTGGGGTGGTGCTGGTGCCATGAACTGCCGGAGTCACCTAGTGCAG,22300 fluorescence intensity (a.u.)
13,CCCTGTCCCACGTGCCATTTGACATCCACCAGACGGGTTCCGGAGTCACCTAGTGCAG,8980 fluorescence intensity (a.u.)
14,CTTTTCTCATCCCTTTTGTTTCTTCACTCCGGCTCACCGCCGGAGTCACCTAGTGCAG,8230 fluorescence intensity (a.u.)
15,CGCGTCCGAGAATAGCCACAGCCACCCCGCGCGCAACGCCCGGAGTCACCTAGTGCAG,8640 fluorescence intensity (a.u.)
16,AAAAATGTTCCAATCAAGCCTTAACGTGTGTTTTATAGTCCGGAGTCACCTAGTGCAG,8510 fluorescence intensity (a.u.)
17,ACAACCCCACATGTCAGTCATCCTAATCTCAACCTTTTTTCGGAGTCACCTAGTGCAG,8180 fluorescence intensity (a.u.)
18,ATGAGTTATTCAACTTTGGTTTTCTTGACTTTTTCATTTGCGGAGTCACCTAGTGCAG,8510 fluorescence intensity (a.u.)
19,TTTTCAAGTTATCAGGTGTGATCCTATCCTGCTCAATTGTCGGAGTCACCTAGTGCAG,8230 fluorescence intensity (a.u.)
20,GTCCCCATCATCCCATGGTCCCACGCCCGACGCTGTAGCTCGGAGTCACCTAGTGCAG,8560 fluorescence intensity (a.u.)
21,GGCACATGAATCATTTCTTTCTATATAAGTACAATCCACTCGGAGTCACCTAGTGCAG,8620 fluorescence intensity (a.u.)
